Experimental data published in patent US20030229137A1, “Methods of inhibiting osteoclast activity” (priority 2001, published 2003).

System: osteoclast formation from PBMC
Assay: in vitro osteoclast formation assay (RANKL/M-CSF, MTS/TRAP)
Format: cell-based
Details: protocol of Example 2, PBMC with RANKL and M-CSF, read-out: IC50 (osteoclast formation inhibition)
Procedure: Each of the kavalactones isolated in Example 1 was studied in an in vitro osteoclast formation assay. The protocol used (essentially that described in T. Yoneda et al., Endocrinology, 129(2):683-689 (1991) and H. Zhou et al., J Biol. Chem., 272, 14926 (2001)) is as follows:
(A) Osteoclast Formation Culture
1) Prepare assay wells (n=4) for each dilution of a test compound in a 384-plate. Each well contains 25 μl of 2× conc. of the compound in 10% FBS-media/0.5% DMSO.
2) Suspend PBMC in 10% FBS-media supplemented with 40 ng/ml of RANKL and 20 ng/ml of human M-CSF at 1.5 M cells/ml.
3) Vortex cell suspension and filtrate through mesh filter to remove cell aggregates.
4) Inoculate 25 μl of cell suspension to each well.
5) Centrifuge the assay plate at 1500 rpm (˜700 g) for 1 min.
6) Start osteoclast formation culture in a 5% CO2-incubator.
7) After 48 h of the culture, replenish 10 μl of 10% FBS-media supplemented with 120 ng/ml of RANKL and 60 ng/ml of M-CSF. Continue the culture until multiple osteoclasts are visible in control wells (up to 4˜5 days).
1) Add 6 μl of MTS reagent to each well and further incubate 1˜2 hrs.
2) Measure absorbance at 490 nm.
3) Discard MTS/culture media and fix cells in 60% acetone/0.38 M citrate buffer, pH 5.4 for 30 sec. Rinse cells with MQ once and air-dried. […]
5) Measure absorbance at 405 nm. […]

CC/C(=C(\c1ccccc1)c1ccc(OCCN(C)C)cc1)c1ccccc1 [tamoxifen, reference compound]
IC50: < 0.1 µM
